Test results taken from PubChem BioAssay AID248 (DTP/NCI, 2004).
The list shows only some results of the screen, not a fair sample: it is rich in T/C values a quarter to a half above the control, in often repeated tests (any T/C) and in doses without a T/C. Other doses and runs of a compound stand elsewhere. T/C is the treated group as % of the vehicle group. Some doses have a count of surviving animals in place of a T/C: the source holds a T/C of zero for them, seemingly a mark for toxic or unscored doses. Some survivor counts are full or nearly so, which does not show that the dose was tolerated: the source hardly ever lists a survival T/C far under the control, and the zero likely stands for such cases as well. Counts of survivors are from the toxicity check (mostly the fifth day) where no day follows; animals may have died later. Schedules are NCI's codes, taken here to give the interval after Q, in days (D) or hours (H), and the number of doses after X. Some schedules carry Z or #; the key to these is not given. Where survival is the endpoint, the PubChem record calls one and a half times the control and up active, and a quarter to a half above the control has no call in these data; cut-offs in other NCI protocols can differ. Some doses were run more than once; the results are listed from low to high.

Test system: L1210 leukemia ip in BDF1 mice, survival T/C
Experiment: NCI In Vivo Anticancer Drug Screen. Data for tumor model L1210 Leukemia (intraperitoneal) in B6D2F1 (BDF1) mice
Details: T/C endpoint: mean survival time, higher T/C = longer survival
[1] = dose: 400.0 mg/kg/injection, schedule: Q01DX001 (ip), vehicle: carboxymethylcellulose (CMC)

CN(C)N=Nc1ccc(CCCC(=O)NN)cc1
T/C (dose: 42.0 mg/kg/injection, schedule: Q01DX009 (ip), vehicle: other): 127 % of control
T/C (dose: 45.0 mg/kg/injection, schedule: Q01DX Z (ip), vehicle: carboxymethylcellulose (CMC)): 142 % of control
T/C (dose: 63.0 mg/kg/injection, schedule: Q01DX009 (ip), vehicle: other): 146 % of control
survivor count [1]: 1 of 4

O=C(Nc1ccc(/C=C/c2ccc(NC(=O)Nc3cccc(C4=NCCN4)c3)cc2)cc1)Nc1cccc(C2=NCCN2)c1
survivor count (dose: 30.0 mg/kg/injection, schedule: Q01DX Z (ip), vehicle: carboxymethylcellulose (CMC)): 6 of 6

O=[N+]([O-])c1cccc(SN2CC2)c1
survivor count (dose: 100.0 mg/kg/injection, schedule: Q01DX001 (ip), vehicle: Klucel (hydroxypropylcellulose) (HPC)): 0 of 6
survivor count (dose: 200.0 mg/kg/injection, schedule: Q01DX001 (ip), vehicle: Klucel (hydroxypropylcellulose) (HPC)): 0 of 6
survivor count (dose: 400.0 mg/kg/injection, schedule: Q01DX001 (ip), vehicle: Klucel (hydroxypropylcellulose) (HPC)): 0 of 6

CC(=O)OCc1ccc(Cl)cc1
survivor count (dose: 400.0 mg/kg/injection, schedule: Q01DX009 (ip), vehicle: saline): 3 of 6

O=[N+]([O-])/C=C/C=C/c1ccco1
survivor count (dose: 50.0 mg/kg/injection, schedule: Q04DX002 (ip), vehicle: saline with Tween-80): 1 of 3
survivor count (dose: 100.0 mg/kg/injection, schedule: Q04DX002 (ip), vehicle: saline with Tween-80): 1 of 3
survivor count (dose: 200.0 mg/kg/injection, schedule: Q04DX002 (ip), vehicle: saline with Tween-80): 1 of 3
survivor count (dose: 400.0 mg/kg/injection, schedule: Q04DX002 (ip), vehicle: saline with Tween-80): 0 of 3

N#C/C(=C/c1c(Cl)cccc1Cl)C(N)=O
survivor count (dose: 150.0 mg/kg/injection, schedule: Q01DX001 (ip), vehicle: saline): 2 of 6
survivor count (dose: 300.0 mg/kg/injection, schedule: Q01DX001 (ip), vehicle: saline): 0 of 6

O=P(CCCCCCP(=O)(N1CC1)N1CC1)(N1CC1)N1CC1
T/C (dose: 100.0 mg/kg/injection, schedule: Q01DX009 (ip), vehicle: carboxymethylcellulose (CMC)): 138 and 148 % of control
survivor count [1]: 3 of 4
